This passage reports binding results from patent US20250304675A1 (MHS CARE INNOVATION, published 2025).

Sequences of proteins named here, by UniProt entry; tags and fusion partners are left off. A change or cut given only in a name is not applied to a line headed by its entry.
UniProt P09681: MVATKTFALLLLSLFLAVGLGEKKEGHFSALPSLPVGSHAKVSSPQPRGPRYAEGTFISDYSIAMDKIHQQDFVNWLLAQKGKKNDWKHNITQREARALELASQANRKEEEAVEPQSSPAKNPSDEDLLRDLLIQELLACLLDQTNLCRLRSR

Experiment [1] concerns the target gastric inhibitory polypeptide (GIP), species not stated at the place of the result (Homo sapiens (Human)) (UniProt P09681). Nature of the experiment: surface plasmon resonance (values not given). (In general: SPR reads the build-up and loss of mass on a sensor chip optically.)
Experiment [2] has as its target T1, synthetic mouse GIP (1-42) (mouse).
T1 sequence (peptide): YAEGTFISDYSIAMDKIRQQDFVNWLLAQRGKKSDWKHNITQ
The experiment is described as follows: hybridoma screen as described above (GIP in suspension, ELISA on coated mouse GIP). Background: In an ELISA, binding on a coated surface is turned into a signal by an enzyme label.

Experiment [3] concerns the target human gastric inhibitory polypeptide (glucose-dependent insulinotropic polypeptide) (human). Nature of the experiment: direct binding ELISA on coated human GIP; 8th of 10 in the printed order.

Results are given in words; binding and its absence hold for the method and conditions named. Some entries that bind do so weakly or less than the wild type.

B1: LC2/HC2 humanized antibody (antibody, V domains shown)
VH: QVQLVQSGAEVKKPGATVKISCKASGFNIRDYYLHWVQQAPGKGLEWMGWIDPENGDTEYAPKFQGRVTITADTSTNTAYMELSSLRSEDTAVYYCNVYGIYFMDYWGQGTMVTVSS
VL: DIQLTQSPSSVSASVGDRVTITCRASSSISSNSLHWYQQKPGKAPKLLIYRTSNLQSGVPSRFSGSGSGTDYTLTISSLQPEDFATYYCQQGSSFPRMLTFGQGTKLEIKR
notes: CHO supernate in the ELISA; Protein A purified in the neutralization assay; also called mAbH; GIP mAbH
On to B1, for which, in experiment [1], the binding entry is “binds”.

B2: 10g10 monoclonal antibody (original mouse mAb) (antibody, V domains shown)
VH: QVQLQESGAELVRSGASVKLSCTASGFNIRDYYLHWIKQRPEQGLEWIGWIDPENGDTEYAPKFQDKATVTADTSSNTAYLQLNSLTSEDTAVYYCNVYGIYFMDYWGQGTTVTVSS
VL: DIQLTQSPSTMAASPGEKITITCSASSSISSNSLHWYQQKPGFSPKLLIYRTSNLASGVPGRFSGSGSGTSYSLTIGTMETEDVATYYCQQGSSFPRMLTFGTGTKLEIKR
notes: Mouse hybridoma antibody; also called 10g10 mAb; 10g10 GIP mAb
For B2, the binding result in experiment [1], in experiment [2] and in experiment [3] was “binds” each time.
